From article PMC4974570 come the findings set out here.

The chains behind the UniProt entries cited, without tags or fusion partners. Where a name states a change or a piece, a line headed by the entry shows the natural chain unless it says otherwise.
UniProt P23836: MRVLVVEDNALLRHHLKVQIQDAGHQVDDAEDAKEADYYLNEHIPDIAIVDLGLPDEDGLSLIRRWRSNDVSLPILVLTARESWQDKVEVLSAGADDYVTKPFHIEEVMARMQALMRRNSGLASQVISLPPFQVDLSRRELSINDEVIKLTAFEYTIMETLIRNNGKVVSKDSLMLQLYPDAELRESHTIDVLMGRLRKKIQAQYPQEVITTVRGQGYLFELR

The exact form of at least one protein or probe is not confirmed.

The target in this data set is PhoP-His6 (phosphorylated, PhoP-P) (UniProt P23836). Briefly: EMSA. The following applies: PhoP phosphorylated by acetyl phosphate, poly(dI-dC) 50 ng/ul; 50 mM Tris-Cl pH 7.5, 50 mM KCl, 1 mM DTT, 50 ug/ml BSA, 5% glycerol, 50 ng/ul poly(dI-dC), 10 fmol probe in 20 ul, 20 min at 25 C; 5% native PAGE in 0.5x TAE; recombinant protein; protein details: His6 (pET22b, pTM50); label: alpha-32P dATP Klenow fill-in; probe letters rebuilt from the primers and the genome.

As to “AATTCATCTGGATAAATAAATTGACGGCGGCATCGGTAATTTTATATTCGTTATCATTAAAAACTAATACAGAAAAAATAAATATAATTTTGGTGAATGTTTTGACATGATTAAATCCATTTTCTTTATTTTCTTCTGACATAATACGTTACTCCCTTTAATTATTAACGATATGTTTCGCATTTTTCTTTAAACCTGCCTGTAACAGAATGTTAATAAGACATGATTGTTGTGGCAGGATCTGCAATAATTAACAATTATCCACTTCACAGAGAATGCT (double strand) [X1 (queE upstream)]”, the binding result is recorded as “binds”.

Turning to “AATTCTATCCCATCATTACGTTTGGCATCTCCTAAACGCCAATTGTCAAAAACTCTTGTAGCATATTGTTCAATTGTCTCGTCTTTGGTTGTGGGAACAATTAATACGGCAATTTGCACTTGGGTATTATTGAAAATAGATTCTAACTTGTGCGTCAGTTCTTTCTTTTCTTGTGAGTTTAAGCTACTCGTAAGATCCGTAACTTGTTGCTGTAATTGTGGGACAATAGTTGGTTGGGCTGCAACAAAGGAACATACGAAAGTGAACATTAGTATGAAATAGCGCATTATAAATTTCTCA (double strand) [X2 (upstream of X1)]”, the binding result was “binds”.
